# Experimental data as given in PubChem BioAssay AID540276 (National Center for Advancing Translational Sciences (NCATS), 2011).
# About 5,400 (1.8%) of roughly 300,000 compounds were called active. Inconclusive means that the source gave no clear call. Such entries were picked first, then a sample of the others. Calls follow the shape of the full dose curve; tested in HEK293 cells. Potencies of inconclusive entries are doubtful fits and often do not repeat.
# Assay: qHTS for inhibitors of binding or entry into cells for Marburg Virus
# Details: Marburg virus pseudotyped entry inhibition, cell reporter; activity change, negative = inhibition: at 37.8 µM (top of the series) unless noted
# % is scaled to controls: 0 for no effect and ±100 for the full control effect; potency is read from the fitted curve at half-maximal effect.
Structure (SMILES),Potency,"activity change, negative = inhibition"
CCN1/C(=C/c2ccc3cc(C)ccc3[n+]2CC)Sc2ccccc21,active: 1.03 µM,
NS(=O)(=O)c1ccc(CCNC(=O)c2ccccc2[N+](=O)[O-])cc1,"inconclusive: 10 µM [activator, partial curve, poor fit]",
CCOc1cc2[nH]c(=S)n(Cc3ccc(C(=O)NCCCN(CC)CC)cc3)c(=O)c2cc1OCC,"inconclusive: 17.8 µM [inhibitor, single point]",
CCOC(=O)C1CCN(C(=O)CN(c2cc(OC)ccc2OC)S(=O)(=O)c2ccccc2)CC1,inactive,
O=C(Nc1cccc(C(F)(F)F)c1)c1cccn(Cc2ccc3c(c2)OC(F)(F)O3)c1=O,"inconclusive: 10.3 µM [inhibitor, partial curve, poor fit]",
CC(=O)Nc1ccc(S(=O)(=O)Oc2ccc3c(c2)C(C)=CC(C)(C)N3)cc1,"inconclusive: 0.517 µM [inhibitor, full curve, poor fit]",
COc1ccc(-c2cc(NCCc3ccncc3)n3ncnc3n2)cc1,"inconclusive: 10 µM [inhibitor, partial curve, poor fit]",
CCOc1ccc(N(C(=O)c2snc(C(N)=O)c2N)C(C(=O)NC2CCCC2)C(C)C)cc1 (stereo unspecified),"inconclusive: 20 µM [inhibitor, partial curve, poor fit]",
CC(=O)Nc1ccc(S(=O)(=O)NN=CCCc2ccccc2)cc1,inactive,
c1ccc(Nc2nnc(SCc3cccc4ccccc34)s2)cc1,inactive,
O=C(Cn1cc[n+](CC(=O)c2ccccc2)c1)c1ccccc1,inactive,
Cc1ccc(Oc2nc(-c3ccccc3)ncc2S(C)(=O)=O)cc1,"inconclusive: 2.82 µM [inhibitor, partial curve, poor fit]",
CCOC(=O)c1c(CN(C)C)n(-c2ccccc2)c2cc(Br)c(OC)cc12,active: 10 µM,
Cc1cccc(NC(=O)CN(c2ccc(C(C)C)cc2)S(=O)(=O)c2c(C)nn(C)c2C)n1,inactive,
c1ccc(Nc2nc(N3CCCC3)nc(N3CCCC3)n2)cc1,"inconclusive: 8.2 µM [inhibitor, partial curve, poor fit]",
Cc1ccc(C(C(=O)NCc2ccco2)N(Cc2ccco2)C(=O)CNC(=O)c2ccco2)cc1 (stereo unspecified),"inconclusive: 15.8 µM [inhibitor, partial curve, poor fit]",
O=C(N/N=C/c1ccccc1O)C1CCCC1,"inconclusive: 25.1 µM [inhibitor, single point]",
Cc1ccc(Cn2c(=O)n(CCCCC(=O)NCc3ccccc3Cl)c(=O)c3ccccc32)cc1,"inconclusive: 2.51 µM [inhibitor, partial curve, poor fit]",
O=C(CSc1nc(-c2ccccc2)nc2c1Cc1ccccc1O2)N1CCCCC1,inactive,
COc1ccc(C(C)=O)cc1COC(=O)CCNS(=O)(=O)c1ccc(C)cc1,inactive,
O=C(Nc1ccnn1C1CCN(C(=O)c2ccc(Cl)c(F)c2)CC1)C1CCOC1 (stereo unspecified),"inconclusive: 3.55 µM [inhibitor, partial curve, poor fit]",
O=C(CSc1nnc(-c2cccnc2)o1)Nc1ccc(Cl)cc1,"inconclusive: 31.6 µM [activator, single point]",
CC(C)CNC(=S)N1CCN(c2nc(-c3ccc(Cl)cc3)cs2)CC1,"inconclusive: 10 µM [inhibitor, partial curve, poor fit]",
C/C(=N\NC(=O)CNC(=O)c1ccc2c(c1)OCO2)c1ccco1,inactive,

# Another view of 2 compounds above:
Structure (SMILES) | Potency | activity change, negative = inhibition
O=C(Cn1cc[n+](CC(=O)c2ccccc2)c1)c1ccccc1 | inactive | 
Cc1ccc(Oc2nc(-c3ccccc3)ncc2S(C)(=O)=O)cc1 | inconclusive: 2.82 µM [inhibitor, partial curve, poor fit] | 

# The listing continues:

Structure (SMILES),Potency,"activity change, negative = inhibition"
COc1ccc(CNC(=O)Cn2cc(C(F)(F)F)ccc2=O)cc1,inactive,
COc1ccccc1C(=O)NCC(C)(C)CN=C1NS(=O)(=O)c2ccccc21,inactive,
COc1ccc(NC(=S)NCCc2ccccc2)c(C)c1,inactive,
C=CCn1c(C)cc(C2=NNC(=NC(C)(C)C)SC2)c1C,"inconclusive: 8.91 µM [inhibitor, partial curve, poor fit]",
O=C(O)C1CN(C(=O)c2ccccc2)c2cc(Cl)ccc2O1 (stereo unspecified),"inconclusive: 8.91 µM [activator, partial curve, poor fit]",
CCOC(=O)/C=C/C(=O)OCC(=O)NCc1ccccc1,inactive,
Cn1c(N)c(C(=O)COC(=O)c2cc(S(=O)(=O)N3CCOCC3)ccc2F)c(=O)n(C)c1=O,active: 7.08 µM,
OC1(CNCc2cn[nH]c2-c2cc3ccccc3o2)CCCCC1,active: 7.94 µM,
O=C(C[n+]1ccc(/C=C/c2ccccc2)cc1)c1ccc2c(c1)OCCO2,"inconclusive: 22.4 µM [inhibitor, partial curve, poor fit]",
CCc1ccc(OCC2c3cc(OC)c(OC)cc3CCN2C(=S)NCCOC)cc1 (stereo unspecified),"inconclusive: 22.4 µM [inhibitor, partial curve, poor fit]",
CCSCCOC(=O)C1=C(C)NC2=C(C(=O)CCC2)C1c1coc2ccccc2c1=O (stereo unspecified),"inconclusive: 1.41 µM [activator, partial curve, poor fit]",
Cc1ccc(Cn2c(C)c(CNCC(C)c3ccccc3)c(C(=O)O)c2C)cc1 (stereo unspecified),inactive,
COc1cc2c(cc1OC)C1(Nc3c-2c(-c2ccccc2)nn3-c2ccccc2)C(=O)Nc2ccccc21 (stereo unspecified),"inconclusive: 15.8 µM [inhibitor, single point]",
C=CCOC(=O)C1=C(C)NC(SCC(=O)Nc2nccs2)=C(C#N)C1c1cccs1 (stereo unspecified),"inconclusive: 14.1 µM [inhibitor, partial curve, poor fit]",
O=C1CCC(C(=O)OCc2nnc(-c3ccccc3)o2)=NN1,"inconclusive: 1.26 µM [inhibitor, single point]",
O=C(NCCC1=CCCCC1)C(=O)c1c[nH]c2ccccc12,"inconclusive: 12.6 µM [activator, single point]",
COc1cc(S(=O)(=O)NCc2ccc3c(c2)OCO3)c(OC)cc1C,"inconclusive: 1.26 µM [inhibitor, single point]",
N#CC1=C(N)NC(=S)C(C(N)=O)C1c1ccccc1F (stereo unspecified),"inconclusive: 35.5 µM [inhibitor, single point]",
CC1=C/C(=C\C=C(C#N)C#N)N(C)c2ccccc21,inactive,
Clc1ccc2oc(-c3ccccc3)nc2c1,"inconclusive: 4.61 µM [activator, full curve, poor fit]",
Clc1ccc(C2N=CC3C=CC=CN32)cc1 (stereo unspecified),"inconclusive: 20 µM [activator, single point]",
Cc1cccc(C(=O)NCCc2nc3ccccc3n2Cc2ccc(Cl)cc2)c1,"inconclusive: 10 µM [inhibitor, partial curve, poor fit]",
Cc1nc2ncccn2c1-c1csc(Nc2ccccc2)n1,"inconclusive: 0.126 µM [inhibitor, full curve, poor fit]",
O=C(N/N=C/c1ccco1)c1ccn[nH]1,inactive,

Structure (SMILES),Potency,"activity change, negative = inhibition"
COc1ccc(OC)c(NC(=O)COC(=O)CCCN=C2NS(=O)(=O)c3ccccc32)c1,"inconclusive: 35.5 µM [activator, single point]",
O=C(CN1CC[n+]2c(-c3cccs3)csc21)c1ccc(-c2ccccc2)cc1,"inconclusive: 14.1 µM [inhibitor, single point]",
COc1cc(CNCc2ccc(SC)cc2)cc(OC)c1,"inconclusive: 35.5 µM [inhibitor, single point]",
Cc1ccc(C=Nc2ccccc2C(N)=O)cc1,inactive,
CCOC(=O)c1ccc2nc(C)cc(Nc3ccc(OC(C)C)cc3)c2c1,"inconclusive: 10 µM [inhibitor, single point]",
COc1ccccc1C(CNc1ccc(S(=O)(=O)N2CCCC2)cc1[N+](=O)[O-])N(C)C (stereo unspecified),"inconclusive: 20 µM [inhibitor, single point]",
CCCCc1ccc(-n2nc3cc(Cl)c(NC(=O)c4ccc(OC)cc4)cc3n2)cc1,inactive,
CCC(CO)N=CC1=C(O)CC(c2ccccc2)CC1=O (stereo unspecified),inactive,
COCCNC(=O)CN(C)S(=O)(=O)c1ccc(Br)cc1,"inconclusive: 20 µM [activator, single point]",
COc1ccc(/C=c2/sc3n(c2=O)C(c2ccccc2OC)C2=C(N=3)c3ccccc3CC2)cc1O (stereo unspecified),active: 23.1 µM,
CCc1ccc(NC(=O)NCc2cccnc2)cc1,inactive,
CC(Nc1cccc2ccccc12)C(=O)N/N=C/c1ccccn1 (stereo unspecified),inactive,
CCCSc1ncnc2c1oc1ccccc12,"inconclusive: 29.1 µM [activator, partial curve, poor fit]",
Nc1ccc2ncccc2c1N,"inconclusive: 14.1 µM [inhibitor, single point]",
Cc1ccc(-c2noc(-c3ccc(NCc4cccnc4)c([N+](=O)[O-])c3)n2)cc1,inactive,
CCCCn1c(=NC(=O)c2c(-c3c(F)cccc3Cl)noc2C)c(C(=O)OCC)cc2c(=O)n3ccccc3nc21,inactive,
CN1CC(=O)N(CC(=O)Nc2ccc(Br)cc2F)C1=O,"inconclusive: 1.78 µM [activator, partial curve, poor fit]",
C/C(CC(=O)Nc1ccc(F)cc1)=N\NC(=O)Cc1csc(N)n1,,inconclusive: 6.89% [activator]
Cc1ccc(C(NC(=O)NCCCN2CCOCC2)=C(Cl)Cl)cc1F,"inconclusive: 11.2 µM [inhibitor, partial curve]",
Cc1cccc(C)c1OCC(=O)N/N=C/c1cccnc1,inactive,
Cc1cc(S(=O)(=O)NCc2ccco2)c(C)s1,inactive,
CCOC(=O)N1CCC(N(CCN(C)C)C(=S)Nc2cc(C)cc(C)c2)CC1,"inconclusive: 7.08 µM [inhibitor, partial curve, poor fit]",
CCC(=O)c1ccc(OCC(=O)OCC(=O)c2cc(C)n(CC3CCCO3)c2C)cc1 (stereo unspecified),inactive,

# Some of these compounds in order of count of non-hydrogen atoms, ascending:
Structure (SMILES),Potency,"activity change, negative = inhibition"
Nc1ccc2ncccc2c1N,"inconclusive: 14.1 µM [inhibitor, single point]",
CCCSc1ncnc2c1oc1ccccc12,"inconclusive: 29.1 µM [activator, partial curve, poor fit]",
Cc1ccc(C=Nc2ccccc2C(N)=O)cc1,inactive,
CCc1ccc(NC(=O)NCc2cccnc2)cc1,inactive,
CN1CC(=O)N(CC(=O)Nc2ccc(Br)cc2F)C1=O,"inconclusive: 1.78 µM [activator, partial curve, poor fit]",
CCC(CO)N=CC1=C(O)CC(c2ccccc2)CC1=O (stereo unspecified),inactive,
C/C(CC(=O)Nc1ccc(F)cc1)=N\NC(=O)Cc1csc(N)n1,,inconclusive: 6.89% [activator]
Cc1ccc(C(NC(=O)NCCCN2CCOCC2)=C(Cl)Cl)cc1F,"inconclusive: 11.2 µM [inhibitor, partial curve]",
CCOC(=O)c1ccc2nc(C)cc(Nc3ccc(OC(C)C)cc3)c2c1,"inconclusive: 10 µM [inhibitor, single point]",
O=C(CN1CC[n+]2c(-c3cccs3)csc21)c1ccc(-c2ccccc2)cc1,"inconclusive: 14.1 µM [inhibitor, single point]",
Cc1ccc(-c2noc(-c3ccc(NCc4cccnc4)c([N+](=O)[O-])c3)n2)cc1,inactive,
CCC(=O)c1ccc(OCC(=O)OCC(=O)c2cc(C)n(CC3CCCO3)c2C)cc1 (stereo unspecified),inactive,
COc1ccc(OC)c(NC(=O)COC(=O)CCCN=C2NS(=O)(=O)c3ccccc32)c1,"inconclusive: 35.5 µM [activator, single point]",
COc1ccc(/C=c2/sc3n(c2=O)C(c2ccccc2OC)C2=C(N=3)c3ccccc3CC2)cc1O (stereo unspecified),active: 23.1 µM,
CCCCn1c(=NC(=O)c2c(-c3c(F)cccc3Cl)noc2C)c(C(=O)OCC)cc2c(=O)n3ccccc3nc21,inactive,
